The results in this text go back to article PMC4527729, “The Inner Membrane Protein PilG Interacts with DNA and the Secretin PilQ in Transformation”.

Common to all, as to assay: far-Western, overlay or dot blot; 1 ug of each purified protein (PilQ proteins, PilN, PilO, PilP, PilF, PilT, ComP, ComL, purified pili, BSA) resolved by SDS-PAGE, blotted on nitrocellulose, renatured overnight at 4°C in renaturing buffer (0.25% gelatin, 0.5% BSA, 0.2% Triton X-100, 10 mM Tris-HCl, 5 mM β-mercaptoethanol, 100 mM NaCl, pH 7.5); membrane incubated 3 h with 1 ug purified full-length or partial PilG in 10 ml renaturing buffer; bound PilG detected with rabbit antiserum; both purified

Experiment [1] has as its target T1, PilQ_(25-132) (N. meningitidis) (UniProt Q70M91).
T1 sequence: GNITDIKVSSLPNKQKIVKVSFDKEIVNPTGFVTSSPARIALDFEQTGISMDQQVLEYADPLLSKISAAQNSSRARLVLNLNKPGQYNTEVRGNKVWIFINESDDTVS

The target of experiment [2] is T2, PilN (N. meningitidis) (UniProt Q4W563).
T2 sequence: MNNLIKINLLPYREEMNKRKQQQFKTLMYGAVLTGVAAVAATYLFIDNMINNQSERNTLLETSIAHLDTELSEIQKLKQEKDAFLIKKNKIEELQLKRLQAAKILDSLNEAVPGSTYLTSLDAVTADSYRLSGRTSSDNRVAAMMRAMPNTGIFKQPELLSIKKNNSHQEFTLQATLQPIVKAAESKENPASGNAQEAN

Experiment [3] deals with T3, PilF (N. meningitidis) (UniProt Q7DDR2).
T3 sequence: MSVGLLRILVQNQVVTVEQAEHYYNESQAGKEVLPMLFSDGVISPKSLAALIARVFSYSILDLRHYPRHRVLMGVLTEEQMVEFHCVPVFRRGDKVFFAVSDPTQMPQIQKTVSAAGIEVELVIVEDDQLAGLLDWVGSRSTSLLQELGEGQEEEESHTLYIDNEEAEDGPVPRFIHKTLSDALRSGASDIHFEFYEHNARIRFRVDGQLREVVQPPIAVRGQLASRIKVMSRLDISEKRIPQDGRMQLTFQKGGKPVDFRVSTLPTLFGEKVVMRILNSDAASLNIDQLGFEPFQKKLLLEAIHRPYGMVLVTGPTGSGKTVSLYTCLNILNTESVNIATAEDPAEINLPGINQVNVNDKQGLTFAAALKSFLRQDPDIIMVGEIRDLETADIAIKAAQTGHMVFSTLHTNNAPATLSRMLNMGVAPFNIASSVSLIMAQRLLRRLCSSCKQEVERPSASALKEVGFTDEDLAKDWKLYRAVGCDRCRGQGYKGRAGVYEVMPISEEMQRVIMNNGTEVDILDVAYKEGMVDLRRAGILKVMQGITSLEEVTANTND

The target in experiment [4] is T4, PilO (N. meningitidis) (UniProt Q7DD78).
T4 sequence: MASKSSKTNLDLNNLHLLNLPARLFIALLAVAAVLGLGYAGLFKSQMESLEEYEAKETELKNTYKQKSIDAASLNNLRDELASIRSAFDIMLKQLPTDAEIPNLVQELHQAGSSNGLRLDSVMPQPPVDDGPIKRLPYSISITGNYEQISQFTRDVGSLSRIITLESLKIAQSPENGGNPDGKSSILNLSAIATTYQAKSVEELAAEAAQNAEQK

Results are given in words; binding and its absence hold for the method and conditions named. For some assays here: A result given as binding can be weak or reduced; the word gives no strength.

Take “PilG full-length (PilG_(FL/1-410)) (N. meningitidis MC58)”: the binding entry is listed as “binds” in experiment [1], “no binding (tested: 1 μg in 10 ml renaturing buffer)” in experiment [2], “no binding (tested: 1 μg in 10 ml renaturing buffer)” in experiment [3] and “no binding (tested: 1 μg in 10 ml renaturing buffer)” in experiment [4].
“PilG_(1-178) (N. meningitidis MC58) (domain or fragment)”: the binding result in experiment [1] is “binds”; in experiment [2], “no binding (tested: 1 μg in 10 ml renaturing buffer)”; in experiment [3], “no binding (tested: 1 μg in 10 ml renaturing buffer)”; in experiment [4] it was “no binding (tested: 1 μg in 10 ml renaturing buffer)”.
Turning to “PilG_(1-256) (N. meningitidis MC58) (domain or fragment)”, the binding entry in experiment [1] was “binds”; in experiment [2], “no binding (tested: 1 μg in 10 ml renaturing buffer)”; in experiment [3] it was “no binding (tested: 1 μg in 10 ml renaturing buffer)”; in experiment [4], “no binding (tested: 1 μg in 10 ml renaturing buffer)”.
As to “PilG_(166-410) (N. meningitidis MC58) (domain or fragment)”, the binding entry in experiment [1], in experiment [2], in experiment [3] and in experiment [4] was “no binding (tested: 1 μg in 10 ml renaturing buffer)” each time.
With “PilG_(257-410) (N. meningitidis MC58) (domain or fragment)”, the binding result in experiment [1], in experiment [2], in experiment [3] and in experiment [4] was “no binding (tested: 1 μg in 10 ml renaturing buffer)” in each case.
